No constants are given. Whether binding was seen depends on the method and setting. Binding seen in cells or lysates may run through a third protein. Some entries that bind do so weakly or less than the wild type. Sequences can lack the tags named with a protein.

This passage reports binding results from PMC10212716.

The target of this assay is T1, flag-labelled MATN2 (mouse) (UniProt O08746).
T1 sequence: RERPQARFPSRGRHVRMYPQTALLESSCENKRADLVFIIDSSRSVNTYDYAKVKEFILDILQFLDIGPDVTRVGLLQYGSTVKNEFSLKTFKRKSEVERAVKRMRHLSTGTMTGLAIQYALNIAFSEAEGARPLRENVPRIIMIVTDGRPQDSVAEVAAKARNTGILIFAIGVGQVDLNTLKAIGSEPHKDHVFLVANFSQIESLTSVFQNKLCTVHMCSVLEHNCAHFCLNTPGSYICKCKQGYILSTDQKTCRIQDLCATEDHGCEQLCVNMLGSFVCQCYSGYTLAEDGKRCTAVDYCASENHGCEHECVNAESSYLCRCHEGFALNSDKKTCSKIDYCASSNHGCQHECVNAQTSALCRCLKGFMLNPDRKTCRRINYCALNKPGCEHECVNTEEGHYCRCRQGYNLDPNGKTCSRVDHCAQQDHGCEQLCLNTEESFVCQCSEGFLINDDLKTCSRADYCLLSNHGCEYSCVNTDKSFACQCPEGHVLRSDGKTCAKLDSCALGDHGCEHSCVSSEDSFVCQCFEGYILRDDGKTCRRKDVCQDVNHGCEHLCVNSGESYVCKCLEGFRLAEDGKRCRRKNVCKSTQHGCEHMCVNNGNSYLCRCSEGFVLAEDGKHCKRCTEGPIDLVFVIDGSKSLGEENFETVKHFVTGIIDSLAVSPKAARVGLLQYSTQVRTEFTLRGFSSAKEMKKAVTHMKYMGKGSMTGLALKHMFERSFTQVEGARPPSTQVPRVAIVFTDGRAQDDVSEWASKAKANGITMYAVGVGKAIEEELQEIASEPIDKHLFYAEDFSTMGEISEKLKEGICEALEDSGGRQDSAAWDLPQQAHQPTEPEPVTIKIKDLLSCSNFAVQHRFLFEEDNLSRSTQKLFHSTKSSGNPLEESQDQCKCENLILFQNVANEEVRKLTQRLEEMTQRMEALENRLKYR
Briefly: co-IP; 293FT cells; lysis in RIPA with protease inhibitor cocktail and PMSF; supernatant incubated overnight at 4°C with anti-Flag or anti-HA magnetic beads; western blotting. (In general: Immunoblotting shows a protein as a band on a membrane.)

As to “HA-labelled EGFR (from UniProt Q01279 25-1210) (receptor)”, the binding entry is recorded as “binds”.
